Assay in all cases: co-purification (affinity and ion exchange chromatography); four septins co-expressed in E. coli; purified together by nickel-histidine and streptavidin-biotin affinities and ion exchange chromatography; kept in 300 mM KCl, 50 mM Tris, pH 8; SDS-PAGE in Fig. S7A
Assay [1] concerns the target T1, SEPT9_i1 (SEPTIN9 isoform 1) (human), Q9UHD8.
T1 chain: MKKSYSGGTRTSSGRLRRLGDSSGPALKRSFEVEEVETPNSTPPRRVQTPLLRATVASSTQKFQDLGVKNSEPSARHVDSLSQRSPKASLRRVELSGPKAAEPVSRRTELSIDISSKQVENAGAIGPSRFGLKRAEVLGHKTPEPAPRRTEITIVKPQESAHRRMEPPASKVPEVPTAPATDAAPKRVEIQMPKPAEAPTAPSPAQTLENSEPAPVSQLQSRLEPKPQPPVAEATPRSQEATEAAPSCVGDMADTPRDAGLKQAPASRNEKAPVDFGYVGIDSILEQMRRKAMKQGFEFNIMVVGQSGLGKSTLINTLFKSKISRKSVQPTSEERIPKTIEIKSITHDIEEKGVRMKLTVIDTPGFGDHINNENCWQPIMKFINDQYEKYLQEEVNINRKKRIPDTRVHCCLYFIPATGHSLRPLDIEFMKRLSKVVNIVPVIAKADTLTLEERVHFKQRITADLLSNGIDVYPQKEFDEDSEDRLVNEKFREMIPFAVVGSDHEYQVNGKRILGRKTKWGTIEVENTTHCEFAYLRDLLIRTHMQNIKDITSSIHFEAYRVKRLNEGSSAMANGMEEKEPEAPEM
The settings on record: remark: other sources report otherwise.

Another assay concerns the target T2, SEPT6 (human) (UniProt Q14141).
T2 sequence: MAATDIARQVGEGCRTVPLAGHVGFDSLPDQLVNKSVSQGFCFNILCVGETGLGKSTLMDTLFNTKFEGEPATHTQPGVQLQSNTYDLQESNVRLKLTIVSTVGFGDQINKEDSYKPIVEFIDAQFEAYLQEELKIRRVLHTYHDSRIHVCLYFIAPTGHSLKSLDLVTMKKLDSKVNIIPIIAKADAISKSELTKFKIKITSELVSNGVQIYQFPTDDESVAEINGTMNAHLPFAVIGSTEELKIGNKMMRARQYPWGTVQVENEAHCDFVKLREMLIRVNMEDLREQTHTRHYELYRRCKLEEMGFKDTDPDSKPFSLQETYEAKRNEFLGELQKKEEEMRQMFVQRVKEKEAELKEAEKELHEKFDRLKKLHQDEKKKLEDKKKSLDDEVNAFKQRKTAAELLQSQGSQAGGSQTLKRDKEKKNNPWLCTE

For a further assay, the target named is T3, SEPT7 (human) (UniProt Q16181).
T3 sequence: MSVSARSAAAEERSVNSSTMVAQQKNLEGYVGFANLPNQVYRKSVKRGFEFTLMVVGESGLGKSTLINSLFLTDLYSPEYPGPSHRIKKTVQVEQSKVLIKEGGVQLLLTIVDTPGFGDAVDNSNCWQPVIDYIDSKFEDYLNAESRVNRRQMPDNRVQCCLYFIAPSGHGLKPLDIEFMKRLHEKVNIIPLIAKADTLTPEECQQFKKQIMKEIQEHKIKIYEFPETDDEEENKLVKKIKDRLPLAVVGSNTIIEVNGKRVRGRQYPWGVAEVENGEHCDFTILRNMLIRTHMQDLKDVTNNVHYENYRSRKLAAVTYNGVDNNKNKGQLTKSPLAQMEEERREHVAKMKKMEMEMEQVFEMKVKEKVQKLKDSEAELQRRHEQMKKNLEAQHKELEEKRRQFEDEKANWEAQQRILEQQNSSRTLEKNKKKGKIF

Assay [2] concerns the target T4, SEPT9_i1 (SEPTIN9 isoform 1) (human) (UniProt Q9UHD8).
T4 sequence: T1 chain

Results are given in words; binding and its absence hold for the method and conditions named. Some binding calls cover weakened binding; strength is not graded here. For some of these results: Where a sequence is shown, tags or fusion partners need not be part of it.

B1: SEPT9_i1 (SEPTIN9 isoform 1), Q9UHD8 1-586 (protein)
chain: T1 chain
B1: the binding entry in assay [1] is reported as “binds”.

B2: SEPT2–GFP (protein, UniProt Q15019 1-361)
chain: MSKQQPTQFINPETPGYVGFANLPNQVHRKSVKKGFEFTLMVVGESGLGKSTLINSLFLTDLYPERVIPGAAEKIERTVQIEASTVEIEERGVKLRLTVVDTPGYGDAINCRDCFKTIISYIDEQFERYLHDESGLNRRHIIDNRVHCCFYFISPFGHGLKPLDVAFMKAIHNKVNIVPVIAKADTLTLKERERLKKRILDEIEEHNIKIYHLPDAESDEDEDFKEQTRLLKASIPFSVVGSNQLIEAKGKKVRGRLYPWGVVEVENPEHNDFLKLRTMLITHMQDLQEVTQDLHYENFRSERLKRGGRKVENEDMNKDQILLEKEAELRRMQEMIARMQAQMQMQMQGGDGDGGALGHHV
With B2, in the assay with SEPT6 (human), the binding entry is reported as “binds”.

B3: SEPT6 (protein, UniProt Q14141 1-434)
chain: T2 sequence
As for B3, the binding entry with SEPT7 (human) is “binds”.

B4: SEPT7 (protein, UniProt Q16181 1-437)
chain: T3 sequence
Regarding B4, the binding result in assay [2] is recorded as “binds”.
